Results from PubChem BioAssay AID2685 (National Center for Advancing Translational Sciences (NCATS), 2010).
The other results are listed elsewhere or left out. These are further read-outs of the screen, such as a control signal, another cell line or another target. No call is given for them. Most of these compounds were active or inconclusive in the main read-out, so they are no random draw. The note in brackets gives the kind of curve behind each potency; many fits are weak.

Assay: qHTS Assay for Lipid Storage Modulators in Drosophila S3 Cells;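 as to cell number change: cells counted by Cell Tracker Red CMTPX staining in the red channel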
Details: BODIPY lipid droplet fluorescence, 18-24 h; for cell number change: measured here: cell count max response, cells fed with added oleic acid
Summary of the method: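 Drosophila S3 cells loaded with oleic acid (400 uM, as added) and compounds at several concentrations; lipid droplets imaged by 488-nm laser-scanning cytometry, 500–530 nm intensity and object ratio to cell channel. Percent activity normalized to 20 uM Triacsin C.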

[1] = measured here: cell number channel AC50, cells fed with added oleic acid
[2] = measured here: lipid fluorescence (Fed channel) AC50, cells fed with added oleic acid

O=C(Oc1ccc(/C=N/NC(=O)c2ccccc2O)cc1)c1ccccc1
cell number change: 22.7% | AC50 [1]: 6.51 µM [falling, single point]

COc1cccc(NC(=O)c2ccc(S(=O)(=O)NCc3cccnc3)cc2)c1
cell number change: -15.4% | AC50 [2]: 1.16 µM [rising, full curve]

CCCn1c(CN2CCN(C(=O)OCC)CC2)nc2cc(NC(=O)CC)ccc21
cell number change: -9.01% | AC50 [2]: 4.61 µM [falling, partial curve, poor fit]

CCOC(=O)c1ccc2c(c1)NCc1cccc(OC)c1O2
cell number change: -1.83% | AC50 [2]: 0.116 µM [falling, full curve, poor fit]

C/C(CC(=O)Nc1cc(C)ccn1)=N\NC(=O)C(=O)Nc1cccc(C)c1
cell number change: -4.75% | AC50 [2]: 6.51 µM [rising, single point]

O=C1NC2=C(C(=O)CCC2)C(c2ccc3ncccc3c2)N1 (stereo not given)
cell number change: -13.4% | AC50 [1]: 0.231 µM [falling, full curve, poor fit] | AC50 [2]: 8.2 µM [falling, partial curve]

O=C(Nc1nncs1)Oc1ccccc1
cell number change: -62.2% | AC50 [2]: 29.1 µM [falling, single point]

CCOn1c(=O)c(-c2cccs2)[n+]([O-])c2ccccc21
cell number change: 82.5% | AC50 [1]: 6.51 µM [rising, partial curve] | AC50 [2]: 18.4 µM [rising, partial curve]

O=C(O)CCCNc1cc(N2CCN(C(=O)c3ccco3)CC2)c2noc3c2c1C(=O)c1ccccc1-3
cell number change: -5.56% | AC50 [2]: 18.4 µM [falling, single point]

O=C(NCc1ccc2c(c1)OCO2)Oc1ccccc1
cell number change: -12% | AC50 [1]: 0.00517 µM [falling, full curve, poor fit]

O=C(Nc1ccccc1)C1=C(c2ccccc2)S(=O)(=O)CCS1(=O)=O
cell number change: -47.5% | AC50 [1]: 0.461 µM [falling, partial curve, poor fit] | AC50 [2]: 25.9 µM [falling, partial curve, poor fit]

Cc1ccc(C(=O)Nc2cc(Cl)ccc2N2CCCCC2)s1
AC50 [1]: 4.11 µM [rising, partial curve] | AC50 [2]: 29.1 µM [rising, single point]

Clc1ccccc1Cn1c(/C=C/c2ccco2)nc2ccccc21
cell number change: 66.7% | AC50 [1]: 2.91 µM [rising, full curve]

CCCCc1cc(=O)oc2cc(OCC(=O)N3CCOCC3)ccc12
cell number change: -7.89%

Cc1nn2c(N)c(C#N)cnc2c1-c1ccccc1
cell number change: -34.4% | AC50 [1]: 29.1 µM [falling, single point] | AC50 [2]: 32.6 µM [falling, single point]

COc1ccc(-n2c(Cc3cc(=O)[nH]c(=O)[nH]3)nnc2SCC(=O)N2CCCC2)cc1
cell number change: -0.759% | AC50 [2]: 4.11 µM [falling, full curve]

Cc1cc(C2N=C(N)Nc3nc4ccccc4n32)c(C)n1-c1ccccc1Cl (stereo not given)
cell number change: -92.8% | AC50 [1]: 29.1 µM [falling, single point] | AC50 [2]: 18.4 µM [falling, partial curve]

C=CCc1cccc(/C=N/NC(=O)CNc2cccc3ccccc23)c1O
cell number change: -62.4% | AC50 [1]: 20.6 µM [falling, single point]

CCn1c(CN2CCOCC2)nnc1SCC(=O)Nc1ccccc1Cl
cell number change: 15.2% | AC50 [2]: 0.326 µM [rising, partial curve, poor fit]

O=C1CCCN1c1ccc(S(=O)(=O)N2CCC(c3ccccc3)CC2)cc1
cell number change: 50% | AC50 [1]: 0.731 µM [rising, full curve, poor fit] | AC50 [2]: 8.2 µM [rising, partial curve]

CCOC(=O)c1sc(NC(=O)c2cc(-c3ccccc3C)nc3ccccc23)c(C#N)c1C
cell number change: 71% | AC50 [1]: 0.731 µM [rising, partial curve, poor fit] | AC50 [2]: 0.58 µM [rising, partial curve]

COc1ccc(-c2cc(C(F)(F)F)nc(SCCC(=O)N3CCOCC3)n2)cc1
cell number change: -41.8% | AC50 [1]: 6.51 µM [falling, full curve]

CC(C)(C)OC(=O)N1CCC[C@H]1c1nnc(SCc2ccc(Cl)cc2Cl)o1
cell number change: 80.7% | AC50 [1]: 29.1 µM [rising, single point] | AC50 [2]: 29.1 µM [rising, single point]

COc1ccc(C(=O)CN2C(=O)NC3(CCc4ccccc43)C2=O)c(OC)c1 (stereo not given)
cell number change: 3.33% | AC50 [1]: 0.231 µM [rising, full curve, poor fit]

CCN(CC)S(=O)(=O)c1ccc(Cl)c(C(=O)NC)c1
cell number change: 3.92%

Cn1nc(C(=O)NCc2cccs2)c2ccccc2c1=O
cell number change: 13.3% | AC50 [2]: 5.8 µM [rising, partial curve]

O=C(Nc1ccc([N+](=O)[O-])cc1)Nc1ccc(OC(F)F)c(Cl)c1
cell number change: -79% | AC50 [1]: 6.51 µM [falling, full curve] | AC50 [2]: 6.51 µM [falling, full curve]

Cc1c(NC(=O)C(C)Sc2ccc3ccccc3n2)c(=O)n(-c2ccccc2)n1C (stereo not given)
cell number change: 12.1%

COc1ccc(CNC(=O)NCc2ccc(OC)c(OC)c2)cc1OC
cell number change: -6.9%

CC(=O)NC(CC(=O)OCC(=O)c1c(N)n(C)c(=O)n(C)c1=O)c1ccccc1 (stereo not given)
cell number change: -13.3%

O=C1c2cccc3cccc(c23)C(=O)N1c1ccc(O)cc1
cell number change: -14.3% | AC50 [2]: 2.91 µM [falling, full curve]

O=C(Nc1ccc(F)cc1)Nc1sccc1-c1nc2ccccc2s1
cell number change: -19.1% | AC50 [2]: 29.1 µM [falling, single point]

CSc1ccc(C2Nc3cccc4cccc(c34)N2)cc1
cell number change: -42.7% | AC50 [1]: 8.2 µM [falling, partial curve, poor fit] | AC50 [2]: 1.16 µM [falling, full curve]

CCOc1ccc(NC(=O)CN(C)C(=O)c2ccc(N3CCCC3)c([N+](=O)[O-])c2)cc1OCC
AC50 [1]: 1.3 µM [rising, single point]

Cc1nc(NC(=O)c2ccccc2)sc1-c1csc(NCCc2ccccc2)n1
AC50 [1]: 0.461 µM [rising, partial curve, poor fit] | AC50 [2]: 0.517 µM [rising, full curve]

Cc1ccc(C)c(C(=O)COC(=O)C2CCN(c3ccc(C(F)(F)F)cn3)CC2)c1
cell number change: 17.3%
